Literature values in patent publication US20100130597A1, “DNA-PKCS MODULATES ENERGY REGULATION AND BRAIN FUNCTION” (The United State of America, as represented by the …, priority 2007, published 2010).
Some entries share one result that the patent states for a list of compounds.

Chains of the proteins cited; added tags and fusions are not shown.
UniProt P78527, whole entry: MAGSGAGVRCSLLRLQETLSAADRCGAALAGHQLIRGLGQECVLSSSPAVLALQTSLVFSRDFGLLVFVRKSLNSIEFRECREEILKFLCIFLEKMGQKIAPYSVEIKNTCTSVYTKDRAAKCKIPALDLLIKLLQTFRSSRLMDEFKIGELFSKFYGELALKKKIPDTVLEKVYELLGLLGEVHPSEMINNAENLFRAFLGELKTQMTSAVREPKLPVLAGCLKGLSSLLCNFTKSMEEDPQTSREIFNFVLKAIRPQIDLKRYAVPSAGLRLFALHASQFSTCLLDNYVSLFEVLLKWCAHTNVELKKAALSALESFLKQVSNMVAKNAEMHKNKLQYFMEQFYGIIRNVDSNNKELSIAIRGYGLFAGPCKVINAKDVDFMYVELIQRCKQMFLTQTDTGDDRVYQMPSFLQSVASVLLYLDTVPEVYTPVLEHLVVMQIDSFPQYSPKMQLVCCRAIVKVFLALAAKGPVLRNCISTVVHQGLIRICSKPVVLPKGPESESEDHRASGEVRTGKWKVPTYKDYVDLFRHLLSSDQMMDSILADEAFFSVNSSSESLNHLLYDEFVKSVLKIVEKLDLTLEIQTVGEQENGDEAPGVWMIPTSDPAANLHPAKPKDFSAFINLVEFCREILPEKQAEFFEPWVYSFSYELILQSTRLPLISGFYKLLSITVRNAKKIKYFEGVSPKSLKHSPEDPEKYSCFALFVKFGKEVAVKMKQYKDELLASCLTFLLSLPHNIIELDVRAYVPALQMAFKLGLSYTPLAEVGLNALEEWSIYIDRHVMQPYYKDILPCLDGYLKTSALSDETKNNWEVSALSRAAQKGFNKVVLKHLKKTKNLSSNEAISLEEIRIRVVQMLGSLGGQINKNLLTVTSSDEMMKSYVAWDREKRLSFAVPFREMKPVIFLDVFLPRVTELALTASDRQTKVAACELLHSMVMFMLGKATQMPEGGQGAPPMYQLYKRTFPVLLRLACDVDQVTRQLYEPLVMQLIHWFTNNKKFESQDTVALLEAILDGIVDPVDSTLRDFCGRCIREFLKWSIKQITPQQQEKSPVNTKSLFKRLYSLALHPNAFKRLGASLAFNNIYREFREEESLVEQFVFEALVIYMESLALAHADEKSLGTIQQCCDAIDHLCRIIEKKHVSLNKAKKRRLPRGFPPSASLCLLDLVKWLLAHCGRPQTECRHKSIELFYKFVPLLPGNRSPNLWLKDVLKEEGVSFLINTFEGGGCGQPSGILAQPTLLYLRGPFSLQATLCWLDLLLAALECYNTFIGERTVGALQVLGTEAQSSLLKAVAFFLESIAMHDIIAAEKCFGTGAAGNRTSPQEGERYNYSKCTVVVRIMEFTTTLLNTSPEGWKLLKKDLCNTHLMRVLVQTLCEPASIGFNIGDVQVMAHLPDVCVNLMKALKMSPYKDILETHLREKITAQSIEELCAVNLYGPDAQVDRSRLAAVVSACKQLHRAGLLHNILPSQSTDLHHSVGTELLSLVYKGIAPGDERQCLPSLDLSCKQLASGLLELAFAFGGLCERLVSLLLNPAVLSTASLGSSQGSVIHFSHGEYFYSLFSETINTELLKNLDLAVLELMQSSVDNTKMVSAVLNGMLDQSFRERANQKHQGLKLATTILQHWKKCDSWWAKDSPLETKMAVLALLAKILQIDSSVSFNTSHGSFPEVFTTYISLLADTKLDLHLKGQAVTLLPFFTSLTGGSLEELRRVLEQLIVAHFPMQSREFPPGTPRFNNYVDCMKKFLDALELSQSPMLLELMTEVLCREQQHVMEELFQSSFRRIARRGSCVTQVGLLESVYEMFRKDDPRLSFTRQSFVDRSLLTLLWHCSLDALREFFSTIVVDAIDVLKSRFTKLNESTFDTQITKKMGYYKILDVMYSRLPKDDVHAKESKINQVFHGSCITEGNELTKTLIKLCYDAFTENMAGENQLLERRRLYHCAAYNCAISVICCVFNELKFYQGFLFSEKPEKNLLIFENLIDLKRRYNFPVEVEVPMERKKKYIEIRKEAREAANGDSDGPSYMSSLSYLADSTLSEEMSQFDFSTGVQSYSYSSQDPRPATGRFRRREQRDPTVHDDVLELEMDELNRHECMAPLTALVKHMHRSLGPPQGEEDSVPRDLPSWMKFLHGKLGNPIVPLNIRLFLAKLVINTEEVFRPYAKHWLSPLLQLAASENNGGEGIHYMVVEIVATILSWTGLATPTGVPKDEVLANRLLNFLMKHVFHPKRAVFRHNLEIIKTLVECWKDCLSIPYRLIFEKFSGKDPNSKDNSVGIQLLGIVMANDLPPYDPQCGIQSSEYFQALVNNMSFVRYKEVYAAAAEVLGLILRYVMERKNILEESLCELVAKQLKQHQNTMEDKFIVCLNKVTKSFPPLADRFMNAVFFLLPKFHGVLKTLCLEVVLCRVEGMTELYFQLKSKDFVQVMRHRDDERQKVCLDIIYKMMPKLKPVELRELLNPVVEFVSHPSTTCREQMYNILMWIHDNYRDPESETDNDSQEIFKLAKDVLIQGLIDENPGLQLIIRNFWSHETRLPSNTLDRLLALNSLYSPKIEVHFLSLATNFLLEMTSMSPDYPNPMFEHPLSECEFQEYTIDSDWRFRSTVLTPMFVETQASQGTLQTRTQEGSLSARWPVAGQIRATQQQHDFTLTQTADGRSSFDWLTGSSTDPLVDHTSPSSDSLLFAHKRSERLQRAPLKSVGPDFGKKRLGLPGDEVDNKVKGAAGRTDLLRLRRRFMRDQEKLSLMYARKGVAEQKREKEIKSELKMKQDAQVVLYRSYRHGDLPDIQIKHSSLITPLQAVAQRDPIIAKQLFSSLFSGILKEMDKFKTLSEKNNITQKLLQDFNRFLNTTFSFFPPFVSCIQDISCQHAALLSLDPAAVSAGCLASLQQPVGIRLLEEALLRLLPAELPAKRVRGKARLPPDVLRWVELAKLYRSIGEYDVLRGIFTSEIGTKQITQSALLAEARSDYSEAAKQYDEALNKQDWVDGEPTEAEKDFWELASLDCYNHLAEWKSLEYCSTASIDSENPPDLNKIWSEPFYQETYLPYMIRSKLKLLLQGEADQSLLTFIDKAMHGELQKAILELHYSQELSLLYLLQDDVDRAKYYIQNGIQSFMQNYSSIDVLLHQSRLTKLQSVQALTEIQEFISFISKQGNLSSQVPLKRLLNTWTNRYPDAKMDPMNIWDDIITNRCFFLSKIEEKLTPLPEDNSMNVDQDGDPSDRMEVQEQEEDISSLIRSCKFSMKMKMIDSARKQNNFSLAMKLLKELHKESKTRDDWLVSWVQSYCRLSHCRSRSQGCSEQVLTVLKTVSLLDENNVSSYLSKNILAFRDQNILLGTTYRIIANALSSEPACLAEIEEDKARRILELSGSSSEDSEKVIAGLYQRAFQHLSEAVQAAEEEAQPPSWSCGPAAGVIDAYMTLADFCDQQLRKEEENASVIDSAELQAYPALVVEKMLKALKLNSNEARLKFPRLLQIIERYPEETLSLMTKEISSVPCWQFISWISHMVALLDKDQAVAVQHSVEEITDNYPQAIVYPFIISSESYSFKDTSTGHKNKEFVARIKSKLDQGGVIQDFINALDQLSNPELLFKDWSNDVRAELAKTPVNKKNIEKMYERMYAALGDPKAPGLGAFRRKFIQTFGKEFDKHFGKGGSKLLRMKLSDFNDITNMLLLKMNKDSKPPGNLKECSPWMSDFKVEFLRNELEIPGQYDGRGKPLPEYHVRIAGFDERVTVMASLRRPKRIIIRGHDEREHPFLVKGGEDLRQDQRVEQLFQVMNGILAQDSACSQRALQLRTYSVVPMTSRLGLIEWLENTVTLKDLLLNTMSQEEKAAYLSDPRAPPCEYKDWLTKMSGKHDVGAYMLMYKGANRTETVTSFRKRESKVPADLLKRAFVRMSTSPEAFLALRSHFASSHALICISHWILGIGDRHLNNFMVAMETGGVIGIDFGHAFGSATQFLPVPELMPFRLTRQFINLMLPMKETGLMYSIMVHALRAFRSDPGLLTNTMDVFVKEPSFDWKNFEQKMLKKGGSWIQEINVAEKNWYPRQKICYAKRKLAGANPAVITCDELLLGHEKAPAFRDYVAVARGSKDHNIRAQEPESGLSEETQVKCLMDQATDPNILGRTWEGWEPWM

Target: DNA-PK (Homo sapiens, UniProt P78527)
Conditions: Smith et al., US 2007/0238731 A1; read-out: IC50 for DNA-PKcs; cited from earlier work

Structure (SMILES): O=C(CC(CCO)CCO)Nc1ccc(-c2cccc3c(=O)cc(N4CCOCC4)oc23)c2sc3ccccc3c12 [compound 5]
- IC50: < 10 nM
